The list does not hold the whole screen: it is rich in T/C values a quarter to a half above the control, in often repeated tests (any T/C) and in doses without a T/C. Further doses and runs are listed elsewhere. T/C: endpoint of the treated group in % of that of the vehicle group. Some doses have a count of surviving animals in place of a T/C: the source files T/C as zero there, which appears to mark a toxic dose or a test without result, not a measured value. Some doses without a T/C left all or most animals alive at the check, yet need not have been tolerated: the source hardly ever lists a survival T/C far under the control, and the zero likely stands for such cases as well. Counts of survivors are from the toxicity check (mostly the fifth day) where no day follows; animals may have died later. Schedules are NCI's codes, taken here to give the interval after Q, in days (D) or hours (H), and the number of doses after X. Some molecules as drawn cover several salts, stereoisomers or complexes of the source; a dose is that of the sample tested. Some schedules carry Z or #; the key to these is not given. Some doses were run more than once; the results are listed from low to high. For survival time, this PubChem deposit counts one and a half times the control or more as active, and values a quarter to a half above the control carry no call in these data; other NCI protocols may use other cut-offs. Counts like (3×) give the number of equal values in this list.
Tested on: L1210 leukemia ip in BDF1 mice, survival T/C
Experiment: NCI In Vivo Anticancer Drug Screen. Data for tumor model L1210 Leukemia (intraperitoneal) in B6D2F1 (BDF1) mice
Conditions: higher T/C = longer survival
[1] = T/C endpoint: mean survival time, dose: 100.0 mg/kg/injection, schedule: Q01DX009 (ip), vehicle: saline
[2] = T/C endpoint: mean survival time, dose: 400.0 mg/kg/injection, schedule: Q01DX009 (ip), vehicle: saline
[3] = T/C endpoint: mean survival time, dose: 50.0 mg/kg/injection, schedule: Q01DX009 (ip), vehicle: saline
[4] = T/C endpoint: mean survival time, dose: 200.0 mg/kg/injection, schedule: Q01DX009 (ip), vehicle: saline
[5] = T/C endpoint: mean survival time, dose: 400.0 mg/kg/injection, schedule: Q04DX003 (ip), vehicle: saline
[6] = T/C endpoint: mean survival time, dose: 250.0 mg/kg/injection, schedule: Q01DX Z (ip), vehicle: saline
[7] = T/C endpoint: mean survival time, dose: 400.0 mg/kg/injection, schedule: Q01DX009 (ip), vehicle: Klucel (hydroxypropylcellulose) (HPC)
[8] = T/C endpoint: mean survival time, dose: 400.0 mg/kg/injection, schedule: Q01DX001 (ip), vehicle: saline
[9] = T/C endpoint: mean survival time, dose: 50.0 mg/kg/injection, schedule: Q01DX001 (ip), vehicle: carboxymethylcellulose (CMC)
[10] = T/C endpoint: mean survival time, dose: 100.0 mg/kg/injection, schedule: Q01DX001 (ip), vehicle: carboxymethylcellulose (CMC)
[11] = T/C endpoint: mean survival time, dose: 100.0 mg/kg/injection, schedule: Q04DX003 (ip), vehicle: Klucel (hydroxypropylcellulose) (HPC)
[12] = T/C endpoint: mean survival time, dose: 200.0 mg/kg/injection, schedule: Q01DX001 (ip), vehicle: saline
[13] = T/C endpoint: mean survival time, dose: 2250.0 mg/kg/injection, schedule: Q02DX010 (ip), vehicle: carboxymethylcellulose (CMC)
[14] = T/C endpoint: mean survival time, dose: 400.0 mg/kg/injection, schedule: Q04DX003 (ip), vehicle: Klucel (hydroxypropylcellulose) (HPC)

CC(=O)Nc1onc(C)c1N
survivor count [1]: 6 of 6
survivor count [2]: 0 of 6

CCCNC(=O)Oc1ccc(C2CCCCC2)cc1
survivor count (T/C endpoint: mean survival time, dose: 400.0 mg/kg/injection, schedule: Q04DX002 (ip), vehicle: Klucel (hydroxypropylcellulose) (HPC)): 3 of 3

CSc1ccc(NC(=O)NS(=O)(=O)c2ccc(C)cc2)cc1
survivor count (T/C endpoint: mean survival time, dose: 400.0 mg/kg/injection, schedule: Q01DX009 (ip), vehicle: saline with Tween-80): 6 of 6

CN1CCN(CCC=C2c3ccccc3Sc3ccc(S(=O)(=O)N(C)C)cc32)CC1
survivor count (T/C endpoint: mean survival time, dose: 25.0 mg/kg/injection, schedule: Q01DX009 (ip), vehicle: saline): 6 of 6
survivor count [3]: 6 of 6
survivor count [1]: 2 of 6
survivor count [4]: 1 of 6
survivor count [5]: 4 of 4

Cc1c(NC(=O)Nc2ccc(C3=NCCN3)cc2)cccc1NC(=O)Nc1ccc(C2=NCCN2)cc1
T/C (T/C endpoint: mean survival time, dose: 5.0 mg/kg/injection, schedule: Q01DX Z (ip), vehicle: carboxymethylcellulose (CMC)): 135 % of control
survivor count (T/C endpoint: mean survival time, dose: 72.0 mg/kg/injection, schedule: Q01DX Z (ip), vehicle: water): 1 of 6
survivor count [6]: 0 of 6
survivor count (T/C endpoint: mean survival time, dose: 500.0 mg/kg/injection, schedule: Q01DX Z (ip), vehicle: saline): 0 of 6

CCN(CC)CCOc1ccccc1-c1nc2ccccc2s1
survivor count (T/C endpoint: mean survival time, dose: 200.0 mg/kg/injection, schedule: Q01DX009 (ip), vehicle: Klucel (hydroxypropylcellulose) (HPC)): 1 of 6
survivor count [7]: 0 of 6

CCC(O)C(c1ccccc1)(c1ccccc1)C(C)CN(C)C (stereo unspecified)
survivor count [8]: 0 of 6

CCSc1ccc2c(c1)N(CCCN1CCN(C)CC1)c1ccccc1S2
T/C (T/C endpoint: mean survival time, dose: 50.0 mg/kg/injection, schedule: Q04DX003 (ip), vehicle: saline): 146 % of control
survivor count [1]: 2 of 6
survivor count (T/C endpoint: mean survival time, dose: 100.0 mg/kg/injection, schedule: Q04DX003 (ip), vehicle: saline): 5 of 6
survivor count [4]: 0 of 6
survivor count (T/C endpoint: mean survival time, dose: 200.0 mg/kg/injection, schedule: Q04DX003 (ip), vehicle: saline): 0 of 6 and 2 of 7
survivor count [2]: 0 of 6
survivor count [5]: 0 of 6 and 2 of 7

C1COC(CNCC2CCCO2)C1 (stereo unspecified)
survivor count [8]: 1 of 4

O=NN(CCCl)C(=O)Nc1ccc2ccccc2c1
survivor count (T/C endpoint: mean survival time, dose: 12.5 mg/kg/injection, schedule: Q01DX001 (ip), vehicle: carboxymethylcellulose (CMC)): 6 of 6
survivor count (T/C endpoint: mean survival time, dose: 25.0 mg/kg/injection, schedule: Q01DX001 (ip), vehicle: carboxymethylcellulose (CMC)): 6 of 6
T/C [9]: 145 % of control
T/C [10]: 147 % of control
survivor count (T/C endpoint: mean survival time, dose: 500.0 mg/kg/injection, schedule: Q01DX001 (ip), vehicle: carboxymethylcellulose (CMC)): 6 of 6
survivor count (T/C endpoint: mean survival time, dose: 600.0 mg/kg/injection, schedule: Q01DX001 (ip), vehicle: carboxymethylcellulose (CMC)): 6 of 6
survivor count (T/C endpoint: mean survival time, dose: 800.0 mg/kg/injection, schedule: Q01DX001 (ip), vehicle: carboxymethylcellulose (CMC)): 5 of 6
survivor count (T/C endpoint: mean survival time, dose: 1000.0 mg/kg/injection, schedule: Q01DX001 (ip), vehicle: carboxymethylcellulose (CMC)): 5 of 6

C=CCNC(=S)Nc1cccc(C(C)O)c1 (stereo unspecified)
survivor count [2]: 1 of 6

Cc1cccn2ncnc12
survivor count (T/C endpoint: mean survival time, dose: 400.0 mg/kg/injection, schedule: Q01DX001 (ip), vehicle: alcohol): 0 of 6

CCN(CC)CCCC(C)Nc1ccnc(/C=C/c2ccc(Br)cc2)c1 (stereo unspecified)
survivor count (T/C endpoint: mean survival time, dose: 25.0 mg/kg/injection, schedule: Q04DX003 (ip), vehicle: Klucel (hydroxypropylcellulose) (HPC)): 6 of 6
survivor count [11]: 6 of 6
survivor count [12]: 3 of 6
survivor count [8]: 1 of 6

CCOC(N)=O
T/C (T/C endpoint: mean survival time, dose: 430.0 mg/kg/injection, schedule: Q02DX010 (ip), vehicle: carboxymethylcellulose (CMC)): 102, 109, 110 (2×), 112, 117 % of control
T/C (T/C endpoint: mean survival time, dose: 500.0 mg/kg/injection, schedule: Q01DX010 (ip), vehicle: saline): 125 % of control
T/C (T/C endpoint: mean survival time, dose: 670.0 mg/kg/injection, schedule: Q02DX010 (ip), vehicle: carboxymethylcellulose (CMC)): 101, 104, 108, 110, 118 % of control (2×)
survivor count (T/C endpoint: mean survival time, dose: 900.0 mg/kg/injection, schedule: Q01DX009 (ip), vehicle: saline): 10 of 10
survivor count (T/C endpoint: mean survival time, dose: 1000.0 mg/kg/injection, schedule: Q01DX010 (ip), vehicle: saline): 6 of 6
T/C (T/C endpoint: mean survival time, dose: 1000.0 mg/kg/injection, schedule: Q02DX010 (ip), vehicle: carboxymethylcellulose (CMC)): 99, 101, 109, 113, 114, 118 % of control
T/C (T/C endpoint: mean survival time, dose: 1500.0 mg/kg/injection, schedule: Q02DX010 (ip), vehicle: carboxymethylcellulose (CMC)): 68, 72, 76, 77, 81, 97 % of control
T/C (T/C endpoint: mean survival time, dose: 1601.0 mg/kg/injection, schedule: Q01DX001 (ip), vehicle: saline): 125 % of control
T/C [13]: 78 % of control
survivor count [13]: 6 of 6
survivor count (T/C endpoint: mean survival time, dose: 2390.0 mg/kg/injection, schedule: Q01DX001 (ip), vehicle: saline): 3 of 10
survivor count (T/C endpoint: median survival time, dose: 1000.0 mg/kg/injection, schedule: Q01DX009 (ip), vehicle: saline): 6 of 6

COc1cc(C=O)cc(O)c1O
T/C [6]: 138 % of control

CN1CCC23c4ccccc4NC1C21CCN(C)C3Nc2ccccc21
survivor count (T/C endpoint: mean survival time, dose: 100.0 mg/kg/injection, schedule: Q01DX Z (ip), vehicle: saline): 0 of 6
survivor count [7]: 0 of 6

Cc1ccc(N=C=Nc2ccc(C)cc2)cc1
survivor count [11]: 4 of 6
survivor count (T/C endpoint: mean survival time, dose: 200.0 mg/kg/injection, schedule: Q04DX003 (ip), vehicle: Klucel (hydroxypropylcellulose) (HPC)): 1 of 6
survivor count [14]: 0 of 6

S=C([SH2+])[SH2+].S=C([SH2+])[SH2+].[Pt+2].c1ccc(C[P+](c2ccccc2)(c2ccccc2)c2ccccc2)cc1
survivor count [3]: 0 of 6
survivor count (T/C endpoint: mean survival time, dose: 100.0 mg/kg/injection, schedule: Q01DX001 (ip), vehicle: saline): 1 of 6
survivor count [12]: 0 of 6
survivor count [8]: 0 of 6

O=C(N/N=C\c1ccc(Cl)cc1)c1ccccc1
survivor count (T/C endpoint: mean survival time, dose: 400.0 mg/kg/injection, schedule: Q04DX003 (ip), vehicle: saline with Tween-80): 3 of 6

O=C(Nc1ccc(C(=O)O)cc1)Nc1cc(C(F)(F)F)ccc1Cl
survivor count (T/C endpoint: mean survival time, dose: 400.0 mg/kg/injection, schedule: Q01DX009 (ip), vehicle: carboxymethylcellulose (CMC)): 3 of 3

N#CC(OC(=O)c1ccccc1)c1ccccc1 (stereo unspecified)
survivor count (T/C endpoint: mean survival time, dose: 300.0 mg/kg/injection, schedule: Q01DX001 (ip), vehicle: other): 2 of 6

CC1(C)N=C(N)N=C(N)N1c1ccc(CCCC(=O)Nc2cccc(S(=O)(=O)F)c2)cc1
survivor count [12]: 1 of 6
survivor count [8]: 1 of 6 and 2 of 6

C=C1C(=O)OC2CC3(C)OC3C3OC3C3=CC(OC3=O)C12 (stereo unspecified)
survivor count (T/C endpoint: mean survival time, dose: 10.0 mg/kg/injection, schedule: Q01DX001 (ip), vehicle: carboxymethylcellulose (CMC)): 1 of 4
survivor count (T/C endpoint: mean survival time, dose: 20.0 mg/kg/injection, schedule: Q01DX001 (ip), vehicle: carboxymethylcellulose (CMC)): 0 of 4
survivor count (T/C endpoint: mean survival time, dose: 40.0 mg/kg/injection, schedule: Q01DX001 (ip), vehicle: carboxymethylcellulose (CMC)): 0 of 4
survivor count [9]: 0 of 4
survivor count (T/C endpoint: mean survival time, dose: 80.0 mg/kg/injection, schedule: Q01DX001 (ip), vehicle: carboxymethylcellulose (CMC)): 0 of 4
survivor count [10]: 0 of 4
survivor count (T/C endpoint: mean survival time, dose: 200.0 mg/kg/injection, schedule: Q01DX001 (ip), vehicle: carboxymethylcellulose (CMC)): 0 of 4
survivor count (T/C endpoint: mean survival time, dose: 400.0 mg/kg/injection, schedule: Q01DX001 (ip), vehicle: carboxymethylcellulose (CMC)): 0 of 4

S=C(Cc1ccccc1)N1CCCCC1
survivor count [14]: 2 of 6

Nc1nc2c(=O)[nH]cnc2n1C1OC(CO)C(O)C1O (stereo unspecified)
survivor count (T/C endpoint: mean survival time, dose: 40.0 mg/kg/injection, schedule: Q01DX001 (ip), vehicle: saline): 2 of 4
survivor count (T/C endpoint: mean survival time, dose: 80.0 mg/kg/injection, schedule: Q01DX001 (ip), vehicle: saline): 2 of 4

— PubChem BioAssay AID248 (DTP/NCI, 2004)
